Measured values: the supplement of paper PMC10849652
Some of the results follow.

By UniProt entry, the sequences of proteins in these tests, tags left out. Where a name states a change or a piece, a line headed by the entry shows the natural chain unless it says otherwise.
UniProt Q8WU17: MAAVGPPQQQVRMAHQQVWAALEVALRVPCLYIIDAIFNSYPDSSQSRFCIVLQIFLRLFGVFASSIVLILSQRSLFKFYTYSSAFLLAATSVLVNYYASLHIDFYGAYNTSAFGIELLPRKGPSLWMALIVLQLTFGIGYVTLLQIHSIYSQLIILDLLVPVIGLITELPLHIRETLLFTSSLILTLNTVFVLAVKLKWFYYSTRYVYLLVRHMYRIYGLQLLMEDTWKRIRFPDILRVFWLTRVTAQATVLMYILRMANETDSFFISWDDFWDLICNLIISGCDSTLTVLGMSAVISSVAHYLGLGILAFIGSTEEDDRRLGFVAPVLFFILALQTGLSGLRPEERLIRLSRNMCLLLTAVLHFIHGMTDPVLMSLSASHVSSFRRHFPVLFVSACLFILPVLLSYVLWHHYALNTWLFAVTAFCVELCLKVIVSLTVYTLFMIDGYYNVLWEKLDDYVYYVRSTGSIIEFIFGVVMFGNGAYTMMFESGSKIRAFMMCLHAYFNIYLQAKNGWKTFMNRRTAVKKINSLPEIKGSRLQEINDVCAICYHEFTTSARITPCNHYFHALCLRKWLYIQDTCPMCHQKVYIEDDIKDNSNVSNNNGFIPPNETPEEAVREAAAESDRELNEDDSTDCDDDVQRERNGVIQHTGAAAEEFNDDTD
UniProt Q86XS8: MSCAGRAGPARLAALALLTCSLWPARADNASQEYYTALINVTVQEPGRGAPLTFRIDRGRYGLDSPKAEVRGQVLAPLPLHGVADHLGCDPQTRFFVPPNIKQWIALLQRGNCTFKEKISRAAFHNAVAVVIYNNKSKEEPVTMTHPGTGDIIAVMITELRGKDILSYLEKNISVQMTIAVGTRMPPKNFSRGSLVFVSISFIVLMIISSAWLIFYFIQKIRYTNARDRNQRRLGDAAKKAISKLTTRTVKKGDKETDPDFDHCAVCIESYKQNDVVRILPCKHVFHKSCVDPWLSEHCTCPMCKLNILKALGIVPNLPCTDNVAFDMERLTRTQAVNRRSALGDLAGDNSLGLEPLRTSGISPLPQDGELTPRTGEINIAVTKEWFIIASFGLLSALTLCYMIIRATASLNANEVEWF
UniProt Q9HAU8: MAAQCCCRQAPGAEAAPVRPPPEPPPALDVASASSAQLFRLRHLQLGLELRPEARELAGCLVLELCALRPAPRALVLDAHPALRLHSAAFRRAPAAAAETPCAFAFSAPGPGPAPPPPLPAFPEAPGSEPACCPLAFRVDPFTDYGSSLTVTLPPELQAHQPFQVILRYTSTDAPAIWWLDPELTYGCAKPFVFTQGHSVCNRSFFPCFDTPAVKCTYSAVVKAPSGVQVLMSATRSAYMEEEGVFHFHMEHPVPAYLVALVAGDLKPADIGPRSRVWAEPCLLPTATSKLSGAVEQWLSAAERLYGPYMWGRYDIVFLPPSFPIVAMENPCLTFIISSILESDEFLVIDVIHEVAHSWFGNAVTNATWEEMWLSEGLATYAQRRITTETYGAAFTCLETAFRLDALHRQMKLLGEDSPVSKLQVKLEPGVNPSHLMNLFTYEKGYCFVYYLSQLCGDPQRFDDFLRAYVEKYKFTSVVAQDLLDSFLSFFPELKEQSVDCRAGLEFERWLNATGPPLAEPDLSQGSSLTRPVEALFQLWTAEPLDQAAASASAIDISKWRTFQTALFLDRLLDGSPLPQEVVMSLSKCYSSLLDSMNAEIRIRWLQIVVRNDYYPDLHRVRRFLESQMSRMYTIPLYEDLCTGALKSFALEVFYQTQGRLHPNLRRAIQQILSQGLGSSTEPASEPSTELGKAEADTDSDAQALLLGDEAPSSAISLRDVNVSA
UniProt Q8TA86: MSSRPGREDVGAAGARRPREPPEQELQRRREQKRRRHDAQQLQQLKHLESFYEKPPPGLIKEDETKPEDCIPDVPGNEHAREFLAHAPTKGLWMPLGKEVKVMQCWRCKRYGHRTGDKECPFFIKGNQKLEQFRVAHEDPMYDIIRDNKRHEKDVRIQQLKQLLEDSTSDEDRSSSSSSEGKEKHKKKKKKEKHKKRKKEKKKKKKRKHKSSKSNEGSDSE
UniProt Q99942: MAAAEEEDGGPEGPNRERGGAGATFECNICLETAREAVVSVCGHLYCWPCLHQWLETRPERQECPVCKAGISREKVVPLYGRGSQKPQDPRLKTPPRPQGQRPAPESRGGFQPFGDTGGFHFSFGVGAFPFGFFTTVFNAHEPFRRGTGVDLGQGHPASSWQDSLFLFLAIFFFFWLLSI
UniProt Q9HCK4: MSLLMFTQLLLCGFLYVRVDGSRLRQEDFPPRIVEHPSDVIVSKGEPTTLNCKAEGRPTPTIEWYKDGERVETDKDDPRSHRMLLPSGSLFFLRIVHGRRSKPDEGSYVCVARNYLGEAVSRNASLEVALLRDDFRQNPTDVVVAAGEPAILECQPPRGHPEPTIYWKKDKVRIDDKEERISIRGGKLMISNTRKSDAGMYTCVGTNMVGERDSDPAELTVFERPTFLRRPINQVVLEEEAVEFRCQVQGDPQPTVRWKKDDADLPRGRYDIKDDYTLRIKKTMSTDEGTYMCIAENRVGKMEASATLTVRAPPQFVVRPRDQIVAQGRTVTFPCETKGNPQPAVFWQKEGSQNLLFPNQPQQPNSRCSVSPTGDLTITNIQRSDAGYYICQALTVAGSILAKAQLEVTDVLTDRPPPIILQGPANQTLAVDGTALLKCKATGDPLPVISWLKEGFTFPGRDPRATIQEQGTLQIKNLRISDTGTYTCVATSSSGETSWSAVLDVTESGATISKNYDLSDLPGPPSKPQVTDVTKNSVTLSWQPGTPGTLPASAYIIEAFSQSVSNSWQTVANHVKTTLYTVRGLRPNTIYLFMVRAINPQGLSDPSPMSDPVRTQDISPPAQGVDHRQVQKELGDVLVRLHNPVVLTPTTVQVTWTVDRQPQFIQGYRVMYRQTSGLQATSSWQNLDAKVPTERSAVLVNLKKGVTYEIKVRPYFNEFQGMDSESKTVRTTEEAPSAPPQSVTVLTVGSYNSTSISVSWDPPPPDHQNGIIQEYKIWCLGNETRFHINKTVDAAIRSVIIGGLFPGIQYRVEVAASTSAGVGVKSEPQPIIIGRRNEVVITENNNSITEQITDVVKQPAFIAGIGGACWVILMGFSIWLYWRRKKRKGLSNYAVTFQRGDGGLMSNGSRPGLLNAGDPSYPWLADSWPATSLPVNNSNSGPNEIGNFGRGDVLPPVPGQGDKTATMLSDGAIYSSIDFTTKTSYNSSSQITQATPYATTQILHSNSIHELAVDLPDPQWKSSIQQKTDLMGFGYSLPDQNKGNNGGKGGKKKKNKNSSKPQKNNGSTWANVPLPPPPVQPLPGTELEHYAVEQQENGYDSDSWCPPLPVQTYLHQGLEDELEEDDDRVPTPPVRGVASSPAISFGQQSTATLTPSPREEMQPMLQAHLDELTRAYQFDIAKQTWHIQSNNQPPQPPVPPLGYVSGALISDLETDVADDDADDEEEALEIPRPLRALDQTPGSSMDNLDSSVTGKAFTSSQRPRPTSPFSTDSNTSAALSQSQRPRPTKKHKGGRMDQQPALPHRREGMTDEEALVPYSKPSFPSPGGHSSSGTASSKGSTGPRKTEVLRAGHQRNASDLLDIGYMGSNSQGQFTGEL
UniProt P17081: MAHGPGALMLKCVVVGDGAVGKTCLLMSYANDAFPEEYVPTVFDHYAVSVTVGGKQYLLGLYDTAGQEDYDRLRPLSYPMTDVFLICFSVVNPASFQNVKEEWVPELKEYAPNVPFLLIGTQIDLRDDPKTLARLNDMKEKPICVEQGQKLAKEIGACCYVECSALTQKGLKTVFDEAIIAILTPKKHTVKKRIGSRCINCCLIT
UniProt Q99496: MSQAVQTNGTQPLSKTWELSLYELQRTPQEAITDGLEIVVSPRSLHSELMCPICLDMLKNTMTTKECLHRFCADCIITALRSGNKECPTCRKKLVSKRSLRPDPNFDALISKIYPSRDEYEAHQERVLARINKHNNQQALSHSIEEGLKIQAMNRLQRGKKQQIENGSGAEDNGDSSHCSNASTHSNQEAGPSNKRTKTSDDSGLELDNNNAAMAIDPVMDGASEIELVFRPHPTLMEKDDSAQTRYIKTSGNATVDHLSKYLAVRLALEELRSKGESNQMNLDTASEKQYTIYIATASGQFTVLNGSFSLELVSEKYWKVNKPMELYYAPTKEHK
UniProt O94955, whole entry, looked up: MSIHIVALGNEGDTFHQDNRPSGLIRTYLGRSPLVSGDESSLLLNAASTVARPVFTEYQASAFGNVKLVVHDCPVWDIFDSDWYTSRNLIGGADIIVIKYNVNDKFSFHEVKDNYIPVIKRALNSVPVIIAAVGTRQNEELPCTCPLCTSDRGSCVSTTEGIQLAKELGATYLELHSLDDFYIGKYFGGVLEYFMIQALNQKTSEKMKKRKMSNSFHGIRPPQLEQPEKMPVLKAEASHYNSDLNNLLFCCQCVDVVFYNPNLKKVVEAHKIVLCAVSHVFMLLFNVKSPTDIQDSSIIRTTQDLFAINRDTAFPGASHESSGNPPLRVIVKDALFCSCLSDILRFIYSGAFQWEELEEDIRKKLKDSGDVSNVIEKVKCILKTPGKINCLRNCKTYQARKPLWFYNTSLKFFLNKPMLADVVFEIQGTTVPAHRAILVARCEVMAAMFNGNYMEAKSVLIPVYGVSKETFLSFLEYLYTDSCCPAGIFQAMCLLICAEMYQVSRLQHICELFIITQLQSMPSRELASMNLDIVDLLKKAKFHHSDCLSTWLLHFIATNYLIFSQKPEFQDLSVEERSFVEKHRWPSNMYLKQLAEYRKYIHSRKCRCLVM
UniProt O43567: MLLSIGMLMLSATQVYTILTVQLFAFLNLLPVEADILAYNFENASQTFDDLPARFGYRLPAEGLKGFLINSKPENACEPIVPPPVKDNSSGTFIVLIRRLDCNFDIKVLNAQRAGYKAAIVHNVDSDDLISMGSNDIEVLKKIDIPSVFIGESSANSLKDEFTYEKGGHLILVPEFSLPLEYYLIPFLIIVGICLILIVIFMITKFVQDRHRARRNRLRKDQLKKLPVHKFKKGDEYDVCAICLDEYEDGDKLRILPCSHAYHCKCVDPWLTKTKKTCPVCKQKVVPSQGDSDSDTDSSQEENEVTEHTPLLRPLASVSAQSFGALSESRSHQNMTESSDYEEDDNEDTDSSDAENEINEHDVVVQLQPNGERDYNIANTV
UniProt Q5TA31: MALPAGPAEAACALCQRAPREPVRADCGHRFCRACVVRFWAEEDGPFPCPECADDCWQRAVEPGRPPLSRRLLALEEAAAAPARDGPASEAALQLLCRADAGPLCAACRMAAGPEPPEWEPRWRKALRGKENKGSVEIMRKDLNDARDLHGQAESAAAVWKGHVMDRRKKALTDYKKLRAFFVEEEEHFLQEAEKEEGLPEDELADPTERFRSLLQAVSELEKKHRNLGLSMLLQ
UniProt Q5M7Z0: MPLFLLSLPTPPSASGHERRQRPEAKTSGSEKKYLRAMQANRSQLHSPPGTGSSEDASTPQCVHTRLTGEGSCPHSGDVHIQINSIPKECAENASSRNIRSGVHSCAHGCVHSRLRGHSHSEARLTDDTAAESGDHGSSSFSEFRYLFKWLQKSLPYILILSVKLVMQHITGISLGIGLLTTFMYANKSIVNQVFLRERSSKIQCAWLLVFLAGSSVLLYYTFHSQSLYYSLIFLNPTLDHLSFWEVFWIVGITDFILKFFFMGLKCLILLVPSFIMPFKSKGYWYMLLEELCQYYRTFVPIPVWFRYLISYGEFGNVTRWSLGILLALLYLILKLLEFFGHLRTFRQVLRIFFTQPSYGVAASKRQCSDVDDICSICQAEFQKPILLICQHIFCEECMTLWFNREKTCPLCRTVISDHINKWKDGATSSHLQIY
UniProt Q8NCN4: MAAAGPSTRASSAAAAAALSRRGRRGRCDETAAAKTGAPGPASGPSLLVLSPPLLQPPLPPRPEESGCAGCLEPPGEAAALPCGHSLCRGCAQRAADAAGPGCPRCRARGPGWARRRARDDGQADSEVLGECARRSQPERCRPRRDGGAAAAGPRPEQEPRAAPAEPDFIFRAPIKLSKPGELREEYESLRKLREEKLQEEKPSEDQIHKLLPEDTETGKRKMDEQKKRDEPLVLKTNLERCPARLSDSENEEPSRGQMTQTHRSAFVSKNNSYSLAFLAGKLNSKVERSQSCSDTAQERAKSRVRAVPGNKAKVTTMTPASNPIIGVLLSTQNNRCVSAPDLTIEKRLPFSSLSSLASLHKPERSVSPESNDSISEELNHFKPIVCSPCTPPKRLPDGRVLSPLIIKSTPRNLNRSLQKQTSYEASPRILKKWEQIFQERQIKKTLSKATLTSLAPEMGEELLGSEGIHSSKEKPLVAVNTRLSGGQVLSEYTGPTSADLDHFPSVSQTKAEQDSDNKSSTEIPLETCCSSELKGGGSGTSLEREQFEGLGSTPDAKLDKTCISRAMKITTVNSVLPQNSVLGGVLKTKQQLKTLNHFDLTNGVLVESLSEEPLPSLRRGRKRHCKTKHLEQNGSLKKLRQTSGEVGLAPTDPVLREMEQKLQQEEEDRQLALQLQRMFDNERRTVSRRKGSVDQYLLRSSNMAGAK

How the values were obtained:
Assay in all cases: log2 fold change, soluble protein after heating vs DMSO (PISA); higher = thermal stabilisation; K562 lysate, 10 uM; active = over 0.2 and 3.5 SD of the protein, either way, in both replicates (recomputed)
lapatinib = compound: CS(=O)(=O)CCNCc1ccc(-c2ccc3ncnc(Nc4ccc(OCc5cccc(F)c5)c(Cl)c4)c3c2)o1 [lapatinib]
In short: (§1)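 Thermal stability, expressed as log-two fold change relative to solvent controls, is given from duplicates. Crude K562 extract in PBS pH 7.4 with 1 mM MgCl2, at 1 mg/mL protein, was treated with 10 μM compound for 30 min and heated in aliquots for 3 min across 48°C-58°C. After pooling, adjustment to 0.5% NP-40 at 4°C and centrifugation at 21,000xg for 90 min, supernatant protein was measured by TMTpro 16plex LC-MS/MS with channel sums equalised.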

nilotinib = compound: Cc1cn(-c2cc(NC(=O)c3ccc(C)c(Nc4nccc(-c5cccnc5)n4)c3)cc(C(F)(F)F)c2)cn1 [nilotinib]
In short: as §1

[1] = compound: Cc1nc(Nc2n[nH]c3c2CN(C(=O)N[C@H](CN(C)C)c2ccccc2)C3(C)C)c2sccc2n1
In short: as §1

[2] = compound: Cc1ncc(-c2ccnc(Nc3ccc(S(C)(=O)=O)cc3)n2)n1C(C)C
In short: as §1

tipifarnib = compound: Cn1cncc1[C@@](N)(c1ccc(Cl)cc1)c1ccc2c(c1)c(-c1cccc(Cl)c1)cc(=O)n2C [tipifarnib]
In short: as §1

[3] = compound: NC(=O)c1cnc(N[C@@H]2CCCC[C@@H]2N)nc1Nc1cccc(-n2nccn2)c1
In short: as §1

crizotinib = compound: C[C@@H](Oc1cc(-c2cnn(C3CCNCC3)c2)cnc1N)c1c(Cl)ccc(F)c1Cl [crizotinib]
In short: as §1

[4] = compound: C[C@H](C1=CC=C(C=C1)C(=O)NC2=C3C=CNC3=NC=C2)N
In short: as §1

gandotinib = compound: Cc1cc(Nc2cc(CN3CCOCC3)c3nc(C)c(Cc4ccc(Cl)cc4F)n3n2)n[nH]1 [gandotinib]
In short: as §1

doramapimod = compound: Cc1ccc(-n2nc(C(C)(C)C)cc2NC(=O)Nc2ccc(OCCN3CCOCC3)c3ccccc23)cc1 [doramapimod]
In short: as §1

[5] = compound: Cc1cccc(CC(=O)N2CCc3c2ccc(-c2cn(C)c4ncnc(N)c24)c3F)n1
In short: as §1

quisinostat = compound: Cn1cc(CNCC2CCN(c3ncc(C(=O)NO)cn3)CC2)c2ccccc21 [quisinostat]
In short: as §1

[6] = compound: NC(=O)Nc1cc(-c2cccc(F)c2)sc1C(=O)N[C@H]1CCCNC1
In short: as §1

[7] = compound: NC1(c2ccc(-c3nc4ccn5c(=O)[nH]nc5c4cc3-c3ccccc3)cc2)CCC1
In short: as §1

pictilisib = compound: CS(=O)(=O)N1CCN(Cc2cc3nc(-c4cccc5[nH]ncc45)nc(N4CCOCC4)c3s2)CC1 [pictilisib]
In short: as §1

duvelisib = compound: C[C@H](Nc1ncnc2nc[nH]c12)c1cc2cccc(Cl)c2c(=O)n1-c1ccccc1 [duvelisib]
In short: as §1

bafetinib = compound: Cc1ccc(NC(=O)c2ccc(CN3CC[C@H](N(C)C)C3)c(C(F)(F)F)c2)cc1Nc1nccc(-c2cncnc2)n1 [bafetinib]
In short: as §1

dasatinib = compound: Cc1nc(Nc2ncc(C(=O)Nc3c(C)cccc3Cl)s2)cc(N2CCN(CCO)CC2)n1 [dasatinib]
In short: as §1

[8] = compound: Cn1cc(-c2ccc3c(c2)CCN3C(=O)Cc2cccc(C(F)(F)F)c2)c2c(N)ncnc21
In short: as §1

tozasertib = compound: Cc1cc(Nc2cc(N3CCN(C)CC3)nc(Sc3ccc(NC(=O)C4CC4)cc3)n2)n[nH]1 [tozasertib]
In short: as §1

Target: RNASEH2B, A0A1B0GUE7
- log2 fold change (lapatinib): inactive: -0.128
- log2 fold change (nilotinib): inactive: -0.01
- log2 fold change [1]: inactive: 0.037
- log2 fold change [2]: inactive: 0.211
- log2 fold change (tipifarnib): inactive: 0.067
- log2 fold change [3]: inactive: 0.035

Target: RNF139 (UniProt Q8WU17)
- log2 fold change (crizotinib): inactive: -0.171
- log2 fold change [4]: inactive: -0.241
- log2 fold change (gandotinib): inactive: 0.049
- log2 fold change (doramapimod): inactive: -0.16
- log2 fold change [5]: inactive: 0.023
- log2 fold change (quisinostat): inactive: -0.041
- log2 fold change [6]: inactive: 0.028
- log2 fold change [7]: inactive: -0.017

Target: RNF130 (UniProt Q86XS8)
- log2 fold change (pictilisib): inactive: -0.054
- log2 fold change (crizotinib): inactive: -0.296
- log2 fold change [4]: inactive: 0.284
- log2 fold change (duvelisib): inactive: -0.093
- log2 fold change (gandotinib): inactive: 0.016
- log2 fold change (doramapimod): inactive: 0.25
- log2 fold change (bafetinib): inactive: 0.029
- log2 fold change [5]: inactive: -0.006
- log2 fold change (dasatinib): inactive: -0.05
- log2 fold change [8]: inactive: 0.044
- log2 fold change (quisinostat): inactive: -0.17
- log2 fold change [6]: inactive: 0.09

Target: RNPEPL1 (UniProt Q9HAU8)
- log2 fold change (lapatinib): inactive: 0.06
- log2 fold change (crizotinib): inactive: 0.062
- log2 fold change [4]: inactive: -0.006
- log2 fold change (duvelisib): inactive: 0.044
- log2 fold change (gandotinib): inactive: -0.08
- log2 fold change (doramapimod): inactive: -0.051
- log2 fold change [5]: inactive: 0.073
- log2 fold change (nilotinib): inactive: -0.108
- log2 fold change [1]: inactive: -0.054
- log2 fold change (dasatinib): inactive: 0.023
- log2 fold change [2]: inactive: 0.209
- log2 fold change [8]: inactive: -0.03
- log2 fold change (quisinostat): inactive: 0.013
- log2 fold change (tipifarnib): inactive: 0.011
- log2 fold change [6]: inactive: 0.047
- log2 fold change [3]: inactive: 0.012
- log2 fold change [7]: inactive: -0.058

Target: RP9 (UniProt Q8TA86)
- log2 fold change (lapatinib): inactive: 0.001
- log2 fold change (crizotinib): inactive: 0.04
- log2 fold change [4]: inactive: 0.147
- log2 fold change (duvelisib): inactive: 0.07
- log2 fold change (gandotinib): inactive: -0.051
- log2 fold change (doramapimod): inactive: 0.008
- log2 fold change [5]: inactive: -0.071
- log2 fold change (dasatinib): inactive: -0.002
- log2 fold change [8]: inactive: 0.036
- log2 fold change (quisinostat): inactive: 0.015
- log2 fold change [6]: inactive: -0.083
- log2 fold change [3]: inactive: -0.04
- log2 fold change [7]: inactive: -0.117

Target: RNF111 isoform 3 (UniProt Q6ZNA4)
- log2 fold change (crizotinib): inactive: -0.11
- log2 fold change (doramapimod): inactive: 0.036
- log2 fold change (quisinostat): inactive: 0.102
- log2 fold change [6]: inactive: -0.019

Target: RPAIN isoform 8 (UniProt Q86UA6)
- log2 fold change (pictilisib): inactive: -0.102
- log2 fold change [4]: inactive: 0.038
- log2 fold change (gandotinib): inactive: -0.306
- log2 fold change (tozasertib): inactive: 0.024
- log2 fold change (bafetinib): inactive: 0.013
- log2 fold change [5]: inactive: -0.132

Target: RNF5 (UniProt Q99942)
- log2 fold change (pictilisib): inactive: -0.062
- log2 fold change (crizotinib): inactive: -0.072
- log2 fold change [4]: inactive: -0.005
- log2 fold change (duvelisib): inactive: 0.019
- log2 fold change (gandotinib): inactive: -0.151
- log2 fold change (tozasertib): inactive: 0.155
- log2 fold change (doramapimod): inactive: -0.032
- log2 fold change (bafetinib): inactive: -0.003
- log2 fold change [5]: inactive: 0.061
- log2 fold change (nilotinib): inactive: -0.036
- log2 fold change [1]: inactive: -0.013
- log2 fold change (dasatinib): inactive: -0.209
- log2 fold change [2]: inactive: 0.024
- log2 fold change [8]: inactive: 0.038
- log2 fold change (quisinostat): inactive: 0
- log2 fold change (tipifarnib): inactive: -0.027
- log2 fold change [6]: inactive: -0.053
- log2 fold change [7]: inactive: 0.06

Target: RNF10 isoform 2 (UniProt Q8N5U6)
- log2 fold change (lapatinib): inactive: -0.319
- log2 fold change (crizotinib): inactive: 0.049
- log2 fold change (duvelisib): inactive: 0.025
- log2 fold change (tozasertib): inactive: -0.229
- log2 fold change (doramapimod): inactive: -0.094
- log2 fold change (dasatinib): inactive: 0.058
- log2 fold change [8]: inactive: -0.034
- log2 fold change (quisinostat): inactive: -0.117
- log2 fold change [6]: inactive: 0.086
- log2 fold change [3]: inactive: 0.489
- log2 fold change [7]: inactive: -0.087

Target: ROBO2 isoform 3 (UniProt Q9HCK4)
- log2 fold change (lapatinib): inactive: 0.02
- log2 fold change (crizotinib): inactive: -0.039
- log2 fold change (doramapimod): inactive: 0.019
- log2 fold change (quisinostat): inactive: 0.052
- log2 fold change [6]: inactive: 0.009
- log2 fold change [3]: inactive: 0.043
- log2 fold change [7]: inactive: 0.005

Target: RHOQ (UniProt P17081)
- log2 fold change (tozasertib): inactive: 0.09

Target: RPL32 (UniProt D3YTI8)
- log2 fold change (lapatinib): inactive: 0.002
- log2 fold change (duvelisib): inactive: 0.039
- log2 fold change (dasatinib): inactive: 0.039
- log2 fold change [8]: inactive: -0.054
- log2 fold change [3]: inactive: 0.171
- log2 fold change [7]: inactive: 0.039

Target: RNF2 (UniProt Q99496)
- log2 fold change (crizotinib): inactive: 0.087
- log2 fold change [4]: active: 0.484
- log2 fold change (duvelisib): inactive: 0.031
- log2 fold change (gandotinib): inactive: -0.299
- log2 fold change (tozasertib): inactive: 0.021
- log2 fold change (doramapimod): inactive: -0.032
- log2 fold change [5]: active: -0.442
- log2 fold change (nilotinib): inactive: 0.026
- log2 fold change [1]: inactive: -0.047
- log2 fold change (dasatinib): inactive: -0.07
- log2 fold change [2]: inactive: 0.027
- log2 fold change [8]: inactive: -0.025
- log2 fold change (quisinostat): inactive: 0.154
- log2 fold change (tipifarnib): inactive: -0.124
- log2 fold change [6]: inactive: -0.015
- log2 fold change [7]: inactive: -0.05

Target: RHOBTB3 (UniProt O94955)
- log2 fold change (tozasertib): inactive: -0.161
- log2 fold change (nilotinib): inactive: -0.029
- log2 fold change [1]: inactive: 0.175
- log2 fold change [2]: inactive: 0.084
- log2 fold change (tipifarnib): inactive: 0.006
- log2 fold change [7]: inactive: -0.184

Target: RNF13 (UniProt O43567)
- log2 fold change [7]: inactive: -0.067

Target: RNASE4 (UniProt P34096)
- log2 fold change (lapatinib): inactive: 0.016
- log2 fold change (crizotinib): inactive: 0.002
- log2 fold change (duvelisib): inactive: -0.031
- log2 fold change (tozasertib): inactive: 0.157
- log2 fold change (doramapimod): inactive: 0
- log2 fold change (nilotinib): inactive: 0.166
- log2 fold change [1]: inactive: 0.052
- log2 fold change (dasatinib): inactive: 0.097
- log2 fold change [2]: inactive: 0.144
- log2 fold change [8]: inactive: -0.038
- log2 fold change (quisinostat): inactive: 0.096
- log2 fold change (tipifarnib): inactive: -0.018
- log2 fold change [6]: inactive: -0.019
- log2 fold change [3]: inactive: 0.023
- log2 fold change [7]: inactive: -0.044

Target: RNF187 (UniProt Q5TA31)
- log2 fold change (pictilisib): inactive: 0.01
- log2 fold change (crizotinib): inactive: -0.006
- log2 fold change [4]: inactive: -0.046
- log2 fold change (duvelisib): inactive: -0.021
- log2 fold change (gandotinib): inactive: 0.08
- log2 fold change (tozasertib): inactive: 0.035
- log2 fold change (doramapimod): inactive: -0.044
- log2 fold change (bafetinib): inactive: -0.013
- log2 fold change [5]: inactive: 0.019
- log2 fold change (nilotinib): inactive: 0.04
- log2 fold change [1]: inactive: 0.1
- log2 fold change (dasatinib): inactive: -0.013
- log2 fold change [2]: inactive: -0.038
- log2 fold change [8]: inactive: -0.001
- log2 fold change (quisinostat): inactive: -0.013
- log2 fold change (tipifarnib): inactive: -0.06
- log2 fold change [6]: inactive: 0.01
- log2 fold change [7]: inactive: 0.014

Target: RNFT1 (UniProt Q5M7Z0)
- log2 fold change [4]: inactive: -0.442
- log2 fold change (duvelisib): inactive: 0.17
- log2 fold change (gandotinib): inactive: -0.166
- log2 fold change (tozasertib): inactive: 0.101
- log2 fold change [5]: inactive: 0.218
- log2 fold change (nilotinib): inactive: 0.01
- log2 fold change [1]: inactive: 0.109
- log2 fold change (dasatinib): inactive: 0.174
- log2 fold change [2]: inactive: -0.145
- log2 fold change [8]: inactive: -0.201
- log2 fold change (tipifarnib): inactive: 0.169
- log2 fold change [7]: inactive: -0.005

Target: RPL15, A0A2R8Y738
- log2 fold change (lapatinib): inactive: -0.166
- log2 fold change (pictilisib): inactive: -0.153
- log2 fold change (bafetinib): inactive: -0.137
- log2 fold change (nilotinib): inactive: -0.163
- log2 fold change [1]: inactive: 0.042
- log2 fold change [2]: inactive: -0.182
- log2 fold change (tipifarnib): inactive: -0.125
- log2 fold change [3]: inactive: 0.037
- log2 fold change [7]: inactive: 0.16

Target: RNF169 (UniProt Q8NCN4)
- log2 fold change (pictilisib): inactive: -0.14
- log2 fold change (crizotinib): inactive: -0.005
- log2 fold change (duvelisib): inactive: 0.061
- log2 fold change (doramapimod): inactive: -0.003
- log2 fold change (bafetinib): inactive: 0.155
- log2 fold change (dasatinib): inactive: 0.079
- log2 fold change [8]: inactive: -0.158
- log2 fold change (quisinostat): inactive: 0.068
- log2 fold change [6]: inactive: 0.091
- log2 fold change [7]: inactive: -0.36

Target: RHOXF2B (UniProt P0C7M4)
- log2 fold change (lapatinib): inactive: 0.059
- log2 fold change (duvelisib): inactive: 0.055
- log2 fold change (dasatinib): inactive: 0.074
- log2 fold change [8]: inactive: -0.198
- log2 fold change [3]: inactive: -0.227
- log2 fold change [7]: inactive: -0.227
